Experiments:
additional tumor types = assay: LC-MS detection and over-presentation of the peptides on additional tumor types, cell lines and primary cultures; design: species or system human; details: for Other relevant organs/ cancerous diseases: Table 4A: additional tumor types on which the peptide was found, over-presented on more than 5% of measured tumor samples, or presented on more than 5% with ratio of geometric means tumor vs normal tissues larger than 3; for Additional organs/cancerous diseases: additional tumor types with over-presentation on more than 5% of the measured tumor samples, or presentation on more than 5% with ratio of geometric means tumor vs normal tissues larger than 3
ovarian cancer samples = assay: Relative LC-MS quantitation of HLA-presented peptides: presentation and over-presentation on ovarian cancer vs a panel of normal tissues (presentation score); design: species or system human; key: +++: very highly over-presented on tumors compared to a panel of normal tissues; ++: highly over-presented on tumors compared to a panel of normal tissues; +: over-presented on tumors compared to a panel of normal tissues; details: over-presentation on tumors compared to a panel of normal tissues

Substance | Other relevant organs/ cancerous diseases (additional tumor types) | Additional organs/cancerous diseases (additional tumor types) | Peptide Presentation (presentation score) (ovarian cancer samples)
359 (YLLPESVDL; listed as Homo sapiens) [compound 359] | NSCLC, CRC, HCC, Esophageal Cancer | CLL, Uterine Cancer, NHL, HNSCC | +
360 (ALDSGASLLHL; listed as Homo sapiens) [compound 360] | RCC, HCC, Esophageal Cancer, Urinary bladder Cancer, Uterine Cancer | HNSCC | +
363 (KVLDVSDLESV; listed as Homo sapiens) [compound 363] | Urinary bladder, Endometrium | NSCLC, Esophageal Cancer, Urinary Bladder Cancer, Gallbladder Cancer and Bile Duct Cancer, HNSCC | ++
370 (SLLQDLVSV; listed as Homo sapiens) [compound 370] | HCC | BRCA, Melanoma, Gallbladder Cancer and Bile Duct Cancer, HNSCC | +
373 (SLLEDKGLAEV; listed as Homo sapiens) [compound 373] | NSCLC, SCLC, Leukemia, BrCa, MCC, Melanoma |  | +
375 (SLTETIEGV; listed as Homo sapiens) [compound 375] | BrCa, Esophageal Cancer | Gallbladder Cancer and Bile Duct Cancer | +++
379 (IMEGTLTRV; listed as Homo sapiens) [compound 379] | Leukemia | RCC, CLL, Melanoma, Urinary Bladder Cancer, NHL | +
382 (ALQNYIKEA; listed as Homo sapiens) [compound 382] | Esophageal Cancer | BRCA | +
384 (ILFANPNIFV; listed as Homo sapiens) [compound 384] | CRC, Leukemia, Melanoma | CLL, Urinary Bladder Cancer, Uterine Cancer, NHL | +
385 (SLLEQGLVEA; listed as Homo sapiens) [compound 385] | NSCLC, SCLC, Brain Cancer, HCC, Esophageal Cancer, Uterine Cancer, Gallbladder Cancer, Bile Duct Cancer | BRCA, AML, HNSCC | +
386 (ILFRYPLTI; listed as Homo sapiens) [compound 386] | Urinary bladder Cancer | Melanoma, Uterine Cancer, AML | ++
390 (ALFMKQIYL; listed as Homo sapiens) [compound 390] | Urinary bladder Cancer |  | ++
394 (LLAVIGGLVYL; listed as Homo sapiens) [compound 394] | NSCLC, SCLC, RCC, HCC, PrC, Leukemia, Melanoma, Urinary bladder Cancer | BRCA | +
395 (ALALGGIAVV; listed as Homo sapiens) [compound 395] | NSCLC, CRC, HCC, PrC, Leukemia, BrCa, Melanoma, Esophageal Cancer, Urinary bladder Cancer, Uterine Cancer | CLL, NHL, HNSCC | ++
396 (ALLPDLPAL; listed as Homo sapiens) [compound 396] | HCC, BrCa | SCLC, Gallbladder Cancer and Bile Duct Cancer, AML, NHL, HNSCC | ++
397 (YLFGERLLEC; listed as Homo sapiens) [compound 397] | Colon, Rectum, Leukemia | CLL, Uterine Cancer | +
398 (KLLEEDGTIITL; listed as Homo sapiens) [compound 398] | Colon, Rectum, PC | BRCA, Esophageal Cancer, Gallbladder Cancer and Bile Duct Cancer | +
399 (YLFEPLYHV; listed as Homo sapiens) [compound 399] | SCLC |  | +++
401 (ILLDDTGLAYI; listed as Homo sapiens) [compound 401] | SCLC, HCC, Leukemia, BrCa, Melanoma | CLL, Urinary Bladder Cancer, Gallbladder Cancer and Bile Duct Cancer, NHL | +
403 (KLYDRILRV; listed as Homo sapiens) [compound 403] | NSCLC, RCC | BRCA | ++

Substance | Other relevant organs/ cancerous diseases (additional tumor types) | Additional organs/cancerous diseases (additional tumor types) | Peptide Presentation (presentation score) (ovarian cancer samples)
404 (AIDISGRDPAV; listed as Homo sapiens) [compound 404] | SCLC, Leukemia |  | +
406 (SVQGEDLYLV; listed as Homo sapiens) [compound 406] | HCC, Endometrium |  | ++
410 (VLSDVIPSI; listed as Homo sapiens) [compound 410] | SCLC, RCC, Brain Cancer, GC, HCC, PC, PrC, Leukemia, Melanoma, Esophageal Cancer |  | ++
411 (LLAHLSPEL; listed as Homo sapiens) [compound 411] | HCC | Melanoma | +
413 (TLLEKVEGC; listed as Homo sapiens) [compound 413] |  | Melanoma | ++
414 (YVDDIFLRV; listed as Homo sapiens) [compound 414] |  | GC, Melanoma | +
415 (LLDKVYSSV; listed as Homo sapiens) [compound 415] | NSCLC, HCC, Leukemia, Esophageal Cancer | Brain Cancer, CLL, BRCA, Urinary Bladder Cancer, Uterine Cancer, Gallbladder Cancer and Bile Duct Cancer, AML, NHL, HNSCC | +
418 (ALAELENIEV; listed as Homo sapiens) [compound 418] | SCLC, MCC | CLL, BRCA, Urinary Bladder Cancer, Gallbladder Cancer and Bile Duct Cancer, HNSCC | +
419 (GQYEGKVSSV; listed as Homo sapiens) [compound 419] | HCC | BRCA | +
420 (FMYDTPQEV; listed as Homo sapiens) [compound 420] | SCLC, HCC, BrCa | Gallbladder Cancer and Bile Duct Cancer | ++
421 (RLPETLPSL; listed as Homo sapiens) [compound 421] | NSCLC, SCLC, GC, CRC, PC |  | ++
423 (GLDGPPPTV; listed as Homo sapiens) [compound 423] | HCC, PC, BrCa, Urinary bladder Cancer, Uterine Cancer, Gallbladder Cancer, Bile Duct Cancer | NHL | +++
424 (TLLDALYEI; listed as Homo sapiens) [compound 424] | RCC, Esophageal Cancer, Endometrium | Melanoma, Gallbladder Cancer and Bile Duct Cancer, AML, HNSCC | +
425 (FLYEKSSQV; listed as Homo sapiens) [compound 425] | Brain Cancer, Endometrium | SCLC | +
428 (KLGHTDILVGV; listed as Homo sapiens) [compound 428] | NSCLC, SCLC, CRC, HCC, Leukemia | CLL, Uterine Cancer, HNSCC | ++
429 (GLVNDLARV; listed as Homo sapiens) [compound 429] | NSCLC, HCC | SCLC, BRCA, Melanoma, Gallbladder Cancer and Bile Duct Cancer, NHL | +
430 (HLYSSIEHLTT; listed as Homo sapiens) [compound 430] | NSCLC, CRC, HCC, MCC, Esophageal Cancer | SCLC, BRCA, Urinary Bladder Cancer, NHL | +
431 (SLVNVVPKL; listed as Homo sapiens) [compound 431] | NSCLC, SCLC, RCC, Brain Cancer, Melanoma, Esophageal Cancer | CLL, BRCA, Urinary Bladder Cancer, Gallbladder Cancer and Bile Duct Cancer, AML, NHL | +
433 (AMLNEPWAV; listed as Homo sapiens) [compound 433] | SCLC | BRCA, Melanoma, Urinary Bladder Cancer, HNSCC | +++
434 (KVSNSGITRV; listed as Homo sapiens) [compound 434] | NSCLC | Esophageal Cancer, HNSCC | +++
